## Percent effect of library compounds

Protein sequences, listed by entry. Tags and fused reporters are not part of them. Residues count along the entry.
UniProt P9WFT3, whole entry: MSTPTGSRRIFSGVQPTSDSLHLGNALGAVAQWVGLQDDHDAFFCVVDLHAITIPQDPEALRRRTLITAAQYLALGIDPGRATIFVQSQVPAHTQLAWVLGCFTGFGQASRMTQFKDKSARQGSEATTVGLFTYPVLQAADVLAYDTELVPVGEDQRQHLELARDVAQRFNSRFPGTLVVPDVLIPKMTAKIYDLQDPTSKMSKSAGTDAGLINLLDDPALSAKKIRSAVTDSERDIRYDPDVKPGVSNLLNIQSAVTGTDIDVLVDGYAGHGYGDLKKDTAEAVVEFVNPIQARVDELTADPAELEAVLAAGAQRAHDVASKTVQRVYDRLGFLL
UniProt Q4DA54, 1-478: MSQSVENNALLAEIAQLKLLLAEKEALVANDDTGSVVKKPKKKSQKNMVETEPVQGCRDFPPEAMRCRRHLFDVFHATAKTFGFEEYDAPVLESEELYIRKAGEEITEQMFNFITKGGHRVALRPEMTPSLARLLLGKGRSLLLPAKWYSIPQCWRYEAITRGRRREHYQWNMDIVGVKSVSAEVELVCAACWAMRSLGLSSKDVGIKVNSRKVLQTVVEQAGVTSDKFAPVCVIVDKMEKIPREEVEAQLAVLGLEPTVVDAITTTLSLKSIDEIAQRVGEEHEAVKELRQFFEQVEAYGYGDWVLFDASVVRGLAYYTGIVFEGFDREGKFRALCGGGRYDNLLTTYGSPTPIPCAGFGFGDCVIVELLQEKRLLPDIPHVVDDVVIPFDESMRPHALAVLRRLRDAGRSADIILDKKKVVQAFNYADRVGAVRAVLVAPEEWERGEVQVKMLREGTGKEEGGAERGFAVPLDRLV
UniProt Q8IDJ8, 1-583: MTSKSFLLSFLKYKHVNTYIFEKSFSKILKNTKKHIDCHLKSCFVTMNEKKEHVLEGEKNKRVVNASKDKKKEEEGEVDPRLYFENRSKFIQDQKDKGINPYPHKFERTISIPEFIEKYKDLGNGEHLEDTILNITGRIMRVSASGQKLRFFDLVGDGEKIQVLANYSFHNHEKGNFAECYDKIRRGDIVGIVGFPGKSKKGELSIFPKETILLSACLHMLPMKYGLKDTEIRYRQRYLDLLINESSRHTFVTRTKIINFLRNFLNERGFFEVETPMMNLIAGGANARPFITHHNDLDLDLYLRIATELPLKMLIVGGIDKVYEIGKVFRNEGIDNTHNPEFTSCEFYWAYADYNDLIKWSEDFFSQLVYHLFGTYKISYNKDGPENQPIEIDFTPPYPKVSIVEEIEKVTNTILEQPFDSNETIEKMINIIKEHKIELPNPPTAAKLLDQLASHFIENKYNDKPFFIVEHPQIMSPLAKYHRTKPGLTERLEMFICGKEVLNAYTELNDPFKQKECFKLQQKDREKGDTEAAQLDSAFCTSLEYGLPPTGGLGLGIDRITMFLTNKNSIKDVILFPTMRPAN
UniProt P9WNZ1, whole entry: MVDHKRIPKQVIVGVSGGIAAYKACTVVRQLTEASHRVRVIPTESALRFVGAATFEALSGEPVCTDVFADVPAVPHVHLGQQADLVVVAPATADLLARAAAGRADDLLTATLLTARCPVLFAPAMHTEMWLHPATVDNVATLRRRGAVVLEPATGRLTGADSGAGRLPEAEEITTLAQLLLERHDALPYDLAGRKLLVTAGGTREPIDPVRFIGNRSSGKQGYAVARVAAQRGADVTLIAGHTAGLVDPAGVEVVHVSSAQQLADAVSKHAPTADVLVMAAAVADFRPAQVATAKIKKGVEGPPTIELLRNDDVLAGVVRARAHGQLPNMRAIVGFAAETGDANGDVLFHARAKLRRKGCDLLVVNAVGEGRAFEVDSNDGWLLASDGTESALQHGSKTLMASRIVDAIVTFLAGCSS
UniProt I6X8D2, whole entry: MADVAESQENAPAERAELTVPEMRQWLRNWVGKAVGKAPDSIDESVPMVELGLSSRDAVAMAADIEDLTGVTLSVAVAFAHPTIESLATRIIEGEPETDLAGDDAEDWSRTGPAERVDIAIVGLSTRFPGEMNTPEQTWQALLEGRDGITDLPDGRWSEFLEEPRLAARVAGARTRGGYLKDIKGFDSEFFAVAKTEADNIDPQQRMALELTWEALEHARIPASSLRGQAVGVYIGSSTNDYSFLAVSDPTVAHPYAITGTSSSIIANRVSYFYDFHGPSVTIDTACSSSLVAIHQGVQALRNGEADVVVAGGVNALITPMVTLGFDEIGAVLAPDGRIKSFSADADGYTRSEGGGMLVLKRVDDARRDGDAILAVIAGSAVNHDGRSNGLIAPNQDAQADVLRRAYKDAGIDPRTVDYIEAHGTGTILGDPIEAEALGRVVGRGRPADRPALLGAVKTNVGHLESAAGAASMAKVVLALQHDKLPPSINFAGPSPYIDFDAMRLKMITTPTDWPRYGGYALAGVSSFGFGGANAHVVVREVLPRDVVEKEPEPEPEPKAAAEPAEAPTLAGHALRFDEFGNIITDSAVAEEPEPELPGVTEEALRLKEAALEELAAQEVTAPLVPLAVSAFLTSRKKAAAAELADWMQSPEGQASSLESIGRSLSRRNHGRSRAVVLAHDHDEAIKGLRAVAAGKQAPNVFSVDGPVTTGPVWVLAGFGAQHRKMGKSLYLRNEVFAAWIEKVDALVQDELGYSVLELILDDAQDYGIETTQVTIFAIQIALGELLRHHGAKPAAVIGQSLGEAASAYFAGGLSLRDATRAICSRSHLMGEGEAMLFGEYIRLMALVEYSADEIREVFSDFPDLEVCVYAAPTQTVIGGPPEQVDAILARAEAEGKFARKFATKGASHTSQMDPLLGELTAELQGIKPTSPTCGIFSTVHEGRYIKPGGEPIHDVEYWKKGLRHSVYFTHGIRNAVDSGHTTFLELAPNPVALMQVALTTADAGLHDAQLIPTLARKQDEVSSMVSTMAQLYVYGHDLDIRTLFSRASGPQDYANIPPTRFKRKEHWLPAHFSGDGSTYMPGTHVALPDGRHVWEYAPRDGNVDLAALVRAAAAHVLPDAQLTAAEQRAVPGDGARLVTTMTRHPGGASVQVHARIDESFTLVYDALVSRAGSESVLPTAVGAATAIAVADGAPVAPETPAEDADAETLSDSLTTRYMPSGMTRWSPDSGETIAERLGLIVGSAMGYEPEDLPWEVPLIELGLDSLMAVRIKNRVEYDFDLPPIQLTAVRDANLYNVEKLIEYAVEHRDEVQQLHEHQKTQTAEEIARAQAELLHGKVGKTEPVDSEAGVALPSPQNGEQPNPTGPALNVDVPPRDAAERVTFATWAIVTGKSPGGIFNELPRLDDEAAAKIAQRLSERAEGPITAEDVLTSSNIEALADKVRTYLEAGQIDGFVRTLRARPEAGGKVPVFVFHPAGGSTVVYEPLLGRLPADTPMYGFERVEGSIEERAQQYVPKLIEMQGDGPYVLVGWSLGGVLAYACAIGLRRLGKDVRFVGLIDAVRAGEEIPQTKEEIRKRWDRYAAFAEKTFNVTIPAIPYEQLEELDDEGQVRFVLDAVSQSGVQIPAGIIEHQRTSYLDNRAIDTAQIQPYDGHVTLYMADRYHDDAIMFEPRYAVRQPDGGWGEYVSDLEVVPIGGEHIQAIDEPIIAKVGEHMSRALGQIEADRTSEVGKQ

Measurements from “University of Dundee, Small-Polar-MMV Screening Library” (2021), ChEMBL document CHEMBL3988442.

Results are given as percent effect. The record does not define 0% and 100%; most values in the screen are far below 50% and negative numbers occur (in some assays of this library far below -100). Compounds were drawn at random from those tested, without regard to their results. A dash means the value is not listed here; it may have been measured.

A: 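Tryptophan-tRNA ligase, Mycobacterium tuberculosis (UniProt P9WFT3). Enzyme assay of tryptophanyl-tRNA synthetase; the read-out is not stated. Compounds at 10 µM. Direction is not recorded; retested compounds ran higher, which suggests that high means inhibition. Size under these conditions: about 65,000 compounds, about 64 of them at 50% or above in at least one test.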
B: 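Enzyme assay of histidyl-tRNA synthetase; the read-out is not stated. Target: Histidine-tRNA ligase, Trypanosoma cruzi CL Brener (UniProt Q4DA54). Concentration: 30 µM. The record gives no direction; compounds that gave an IC50 in retests scored well above the rest, so higher reads as stronger inhibition. Size under these conditions: about 69,000 compounds, about 31 of them at 50% or above in at least one test.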
C: 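Lysine-tRNA ligase, Plasmodium falciparum 3D7 (UniProt Q8IDJ8). Enzyme assay of the cytosolic lysyl-tRNA synthetase in 384-well plates, read by luminescence. Concentration: 30 µM. Direction is inferred from only a few compounds that gave an IC50; most scored high, so higher reads as stronger inhibition. Of about 69,000 compounds tested this way, about 49 (0.071%) reached 50% or more in at least one test.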
D: 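Coenzyme A biosynthesis protein CoaBC, Mycobacterium tuberculosis (UniProt P9WNZ1). Enzyme assay of CoaBC with a phosphate dye (Biomol Green) read at 650 nm. Concentration: 30 µM. Direction is inferred from only a few compounds that gave an IC50; most scored high, so higher reads as stronger inhibition. Most strong results did not repeat in a second test. Size under these conditions: about 67,000 compounds, about 40 of them at 50% or above in at least one test.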
E: 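Enzyme assay of the thioesterase domain of polyketide synthase 13; the read-out is not stated. Target: Polyketide synthase Pks13, Mycobacterium tuberculosis (UniProt I6X8D2). Tested at 30 µM. The record gives no direction; the compounds picked for IC50 retests had high values, so higher reads as stronger inhibition. About 67,000 compounds were tested under these conditions; 0.46% (about 300) showed 50% or more at least once.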
F: 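Cell assay of Leishmania donovani living inside macrophages; the read-out is not stated. Compounds at 30 µM. The record gives no direction; compounds that gave an IC50 in retests scored well above the rest, so higher reads as stronger inhibition. About 69,000 compounds were tested under these conditions; 1.5% (about 1,000) showed 50% or more at least once.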

| structure | A | B | C | D | E | F |
|---|---|---|---|---|---|---|
| `CCOc1ccc(CCCC(=O)N2CCC(c3nnn[nH]3)CC2)cc1C` | 4.823% | 2.97% | 12.43% | 3.281% | -8.658% | 19.52% |
| `Cc1ccc(CN2CCc3onc(C(=O)Nc4cccnc4)c3C2)o1.O=C(O)C(F)(F)F.O=C(O)C(F)(F)F` | - | - | - | - | - | 2.827% |
| `[H][C@@]12CCCCN(C)[C@]1([H])[C@@H](c1ccccc1)CCN2C(=O)c1cccnc1` | - | - | - | - | - | -20.79% |
| `Cn1cc(S(=O)(=O)NCC(C)(O)c2ccsc2)cn1` (stereo not given) | -2.839% | 6.061% | 0.5397% | 1.347% | 4.388% | -6.494% |
| `Cc1ccsc1C(=O)N1CC2CC1(C(=O)NCC1CC1)C2` | -4.285% | 6.796% | 3.235% | 4.326% | -34.82% | -0.9017% |
| `Cc1nc(CN2CCCN(Cc3nccn3C(C)C)CC2)no1` | -3.635% | 3.39% | 3.602% | 2.611% | -13.13% | 34.62% |
| `CC(NC(=O)Cc1cc2c(cc1Cl)OCCO2)c1ccncn1` (stereo not given) | -3.196% | 5.063% | 0.6652% | 0.9615% | 2.005% | -2.747% |
| `Cn1cc(CN2CCc3c(nnn3C)C2COCc2ccccc2)cn1.O=C(O)C(F)(F)F` (stereo not given) | - | - | - | - | - | -21.61% |
| `CC(C)CCOc1ccc(C(C)NC(=O)CSCC(N)=O)cc1` (stereo not given) | -1.077% | 4.386% | 3.843% | 8.439% | -9.304% | 16.98% |
| `[H][C@@]12CS(=O)(=O)C[C@]1([H])N(C(=O)c1csc(C)n1)CCN2c1ncccn1` | - | - | - | - | - | 0.852% |
| `CCCc1ccc(C(C)Nc2ncnc3c2CCNC3)cc1` (stereo not given) | 0.4968% | 27.59% | 3.92% | 0.369% | -0.3932% | 81.31% |
| `CC(=O)N1CCCC2(C1)CN(C(=O)C1CCCCC1)CCO2` (stereo not given) | -3.314% | 5.825% | 2.501% | 2.799% | -32.36% | -2.844% |
| `CC(NC(=O)NCCCn1cccn1)c1ccc2c(c1)NC(=O)CO2` (stereo not given) | 1.967% | -0.7519% | -0.7229% | -2.057% | -10.56% | -9.007% |
| `Cc1cccnc1CN(C)CC1(O)CCCN(CC2CCCCC2)C1=O` (stereo not given) | 1.42% | 3.306% | 3.549% | 5.702% | -19.85% | 38.72% |
| `Cc1nc(CN2CCCC2c2noc(C3CC3)n2)oc1C` (stereo not given) | -1.161% | 7.872% | 0.5297% | 5.853% | -9.691% | 19.81% |
| `Cc1ccc(Cl)cc1NS(=O)(=O)c1cc(C(N)=O)n(C)c1` | 5.657% | -5.102% | 1.377% | -0.8485% | -10.13% | 24.39% |
| `Cc1cc(-c2nnn(CCC(N)=O)n2)ccc1F` | -0.9046% | 3.306% | 1.932% | 13.12% | -11.73% | 27.7% |
| `Cc1cc(CN(C)Cc2ncc(-c3cccs3)o2)no1` | -0.3666% | 5.882% | 1.671% | -0.4878% | -7.186% | -1.331% |
| `COc1ccc(C(=O)NCCC(N)=O)c(I)c1` | -2.917% | -1.554% | -2.207% | 5.499% | -19.34% | 27.64% |
| `CCNC(c1cccnc1)c1cc(C)cc(C)c1` (stereo not given) | -2.437% | 4.135% | -6.073% | -2.089% | -18.39% | 33.45% |
| `O=C(c1ccc(-c2cccc3c2CCNC3)o1)N1CCOCC1` | 0% | 16.8% | 6.601% | -15.37% | -15.92% | -0.651% |
| `COCC(=O)N1CCC2(CCN(Cc3ccc(C)cc3)CC2)CC1` | -6.221% | 2.299% | 5.063% | -12.5% | -18.6% | - |
| `OC(COCc1ccc(Cl)cc1)CN1CC(n2cccn2)C1` (stereo not given) | -2.699% | 10.06% | -1.963% | 4.183% | -13.16% | 3.105% |
| `[H][C@@]12CN(C(=O)c3cnccn3)C[C@]1([H])CN(c1cc(OC)ncn1)C2` | - | - | - | - | - | 30.65% |
| `CC(=O)N1CCOC2(CCCN(Cc3ccc(N(C)C)cc3)C2)C1` (stereo not given) | -2.929% | 6.863% | -2.04% | 0.6515% | -6.725% | 10.05% |
| `O=C(c1ccc[nH]1)N1CCc2onc(COc3cccnc3)c2C1` | 1.407% | 16.67% | 4.254% | 1% | -4.709% | - |
| `O=C(NCc1ccccn1)[C@H]1COC[C@H]2CN(CC3CC3)C[C@H]21` | 0.1564% | 12.75% | 3.269% | 3.75% | -12.12% | - |
| `Cc1ccc(NC(=O)N2CCCC(N(C)C)C2)c(Br)c1` (stereo not given) | -4.549% | 10.5% | 2.027% | 1.942% | -31.61% | -3.561% |
| `NC(=O)C(NC1CCN(Cc2ccc(F)cc2)CC1)c1ccccc1` (stereo not given) | -1.069% | 14.81% | 5.035% | 9.939% | -2.729% | 16.27% |
| `COc1ccc(OCc2nc(C(=O)NCCN3CCOCC3)co2)cc1` | -0.277% | 5.291% | -1.405% | 4.142% | -3.192% | 3.413% |
| `Cn1cc(N2CC[C@@H]3CN(Cc4ccncc4)C[C@H]3C2=O)cn1` | -5.642% | 7.216% | 6.437% | 1.232% | -15.26% | - |
| `O=C1O[C@@H]2CN(Cc3ccncc3)C[C@@H]2N1CCCN1CCOCC1` | -4.16% | 4.545% | 0.1811% | 1.071% | -35.81% | - |
| `CCC(=O)N1CCC(c2ncncc2C)CC1` | -5.639% | -2.308% | 0.3777% | 5.226% | 2.811% | 47.29% |
| `Cc1ncnc2c1CCN(Cc1ccccn1)CC2` | 0.4112% | 1.653% | -1.406% | -4.516% | -1.115% | - |
| `CC1(C)CCC(CC(=O)O)c2ccccc21` (stereo not given) | -0.1211% | 5.882% | 8.175% | 2.419% | -10.54% | 12.77% |
| `O=C(c1ccoc1)N1CCC2(CC1)C(=O)Nc1ccccc12` | 1.341% | -0.8475% | -2.19% | 12.33% | -11.69% | 18.29% |
| `O=C(O)C(F)(F)F.[H][C@@]12CCN(C(C)C)CC[C@]1([H])[C@H](COCC1CC1)CN(C)C2=O` | - | - | - | - | - | 9.802% |
| `Cc1c(C(=O)NC2CCCOc3cc(Cl)ccc32)cnn1C` (stereo not given) | 5.616% | 3.96% | -1.367% | 5.825% | -2.267% | -3.472% |
| `CNc1ncc(CN(C)Cc2cc(O)c3cc(F)ccc3n2)cn1` | -0.5455% | 1.935% | -2.036% | 3.382% | -12.6% | 6.814% |
| `CCCN(CC(=O)N(C)C)C(=O)c1ccc(-c2nc(C)cs2)cc1` | -9.387% | 13.07% | -0.5103% | 4.207% | -12.77% | 65.78% |
| `CCOCc1nc(-c2ccc(F)cc2Cl)n(C2CCN(C)CC2)n1` | -2.349% | 6.468% | 0% | 1.975% | -4.6% | -4.918% |
| `C[C@H]1CN(c2ccccn2)C[C@@]12CCN(c1cccnc1)C2=O` | - | 7.778% | 5.253% | 5.366% | 0.6363% | - |
| `CCN1CCC2(COCc3c(C)nc(N(C)C)nc32)C1` (stereo not given) | 5.428% | 6% | 3.584% | -6.192% | -15.74% | 3.027% |
| `O=C(N1CCOCC1)n1cnc2ccccc21` | 2.101% | 0% | 2.438% | 2.81% | -11.86% | 5.066% |
| `COc1ccccc1CN1CCC(c2nccc(C)n2)C1` (stereo not given) | 22% | 9.04% | -0.06285% | -15.98% | -2.978% | 6.021% |
| `CCOC(=O)CSc1nnc([C@@H](N)CC(C)C)o1.Cl` | - | - | - | - | - | 10.84% |
| `Cc1cccc(NC(=O)C2CC(=O)n3cnnc3S2)c1` (stereo not given) | -1.54% | 5.155% | 2.49% | -1.415% | -89.7% | -11.07% |
| `CC(=O)N1CCCn2c(nc(CNS(=O)(=O)C3CC3)cc2=O)C1` | -4.392% | 10.34% | 1.977% | 6.762% | -2.369% | 7.253% |

For reference, 5 entries once more:

structure	A	B	C	D	E	F
O=C(O)C(F)(F)F.[H][C@@]12CCN(C(C)C)CC[C@]1([H])[C@H](COCC1CC1)CN(C)C2=O	-	-	-	-	-	9.802%
Cc1cc(-c2nnn(CCC(N)=O)n2)ccc1F	-0.9046%	3.306%	1.932%	13.12%	-11.73%	27.7%
CC(C)CCOc1ccc(C(C)NC(=O)CSCC(N)=O)cc1 (stereo not given)	-1.077%	4.386%	3.843%	8.439%	-9.304%	16.98%
CCOC(=O)CSc1nnc([C@@H](N)CC(C)C)o1.Cl	-	-	-	-	-	10.84%
CNc1ncc(CN(C)Cc2cc(O)c3cc(F)ccc3n2)cn1	-0.5455%	1.935%	-2.036%	3.382%	-12.6%	6.814%